The test relates to B6C3F1 mice, Lewis lung carcinoma iv, survival T/C. Kind of test: NCI In Vivo Anticancer Drug Screen. Data for tumor model Lewis Lung Carcinoma (intravenous) in B6C3F1 mice. The note with it: T/C endpoint: median survival time, higher T/C = longer survival. The essentials: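 Tumors were transplanted into mice, which were then dosed with compound or vehicle. Survival was recorded in each group, and the treated figure was divided by the control figure.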

Setting [1] is: dose: 50.0 mg/kg/injection, schedule: Q01DX009 (ip), vehicle: saline with Tween-80.
Setting [2] is: dose: 100.0 mg/kg/injection, schedule: Q01DX009 (ip), vehicle: saline with Tween-80.
The mark [3] stands for this setting: dose: 200.0 mg/kg/injection, schedule: Q01DX009 (ip), vehicle: saline with Tween-80.
[4] abbreviates: dose: 50.0 mg/kg/injection, schedule: Q01DX009 (ip), vehicle: saline.
Setting [5] is: dose: 400.0 mg/kg/injection, schedule: Q01DX009 (ip), vehicle: saline with Tween-80.
[6] abbreviates: dose: 400.0 mg/kg/injection, schedule: Q01DX009 (ip), vehicle: Klucel (hydroxypropylcellulose) (HPC).

Each structure is given as a SMILES string. The list is a part of this screen's results and no random one: it is rich in T/C values a quarter to a half above the control, in often repeated tests (any T/C) and in doses without a T/C. Other doses and runs of a compound stand elsewhere. T/C is the treated group as % of the vehicle group. Some entries give survivors of the animals treated and no T/C: the source files T/C as zero there, which appears to mark a toxic dose or a test without result, not a measured value. Some doses without a T/C left all or most animals alive at the check, yet need not have been tolerated: survival well below the control is almost never listed, so the zero probably covers shortened survival too. Counts of survivors are from the toxicity check (mostly the fifth day) where no day follows; animals may have died later. Schedules are NCI's codes, taken here to give the interval after Q, in days (D) or hours (H), and the number of doses after X. Some doses were run more than once; the results are listed from low to high. For survival time, this PubChem deposit counts one and a half times the control or more as active, and values a quarter to a half above the control carry no call in these data; other NCI protocols may use other cut-offs. Some T/C values carry the count of animals alive at the toxicity check (mostly the fifth day); without a count, all were alive then.

Consider `C[C@]12C=CC(=O)C=C1CC[C@@H]1[C@@H]2C(=O)C[C@@]2(C)[C@H]1CC[C@]2(O)C(=O)CO`, for which the survivor count (dose: 400.0 mg/kg/injection, schedule: Q01DX009 (ip), vehicle: water) is reported as 10 of 10.

For `O=NN(CCCl)C(=O)NC1CCC(=O)NC1=O` (stereo unspecified), under “dose: 2.0 mg/kg/injection, schedule: Q01DX009 (ip), vehicle: saline with Tween-80”, the T/C is 139 % of control.

In the case of `CSc1ncnc2c1ncn2C1OC(CO)C(O)C1O` (stereo unspecified), the survivor count (dose: 100.0 mg/kg/injection, schedule: Q01DX009 (ip), vehicle: saline + alcohol) was 7 of 10.

Consider `O=S1(=O)C=C(c2ccccc2)C(c2ccccc2)=C1`, for which the survivor count by setting is: under setting [1], 7 of 10; under setting [2], 1 of 10.

With `CNC(=O)c1cccc2c(Nc3ccc(NS(C)(=O)=O)cc3OC)c3cccc(C)c3nc12`, the T/C is, setting by setting: (dose: 6.25 mg/kg/injection, schedule: Q04DX003 (ip), vehicle: saline + alcohol) 125 and 145 % of control; (dose: 6.25 mg/kg/injection, schedule: Q04DX003 (ip), vehicle: water) 143 % of control; (dose: 25.0 mg/kg/injection, schedule: Q04DX003 (ip), vehicle: saline + alcohol) 139 % of control. Moreover, the survivor count reads like this: (dose: 50.0 mg/kg/injection, schedule: Q04DX003 (ip), vehicle: saline + alcohol) 10 of 10; (dose: 50.0 mg/kg/injection, schedule: Q04DX003 (ip), vehicle: water) 7 of 10; (dose: 100.0 mg/kg/injection, schedule: Q04DX003 (ip), vehicle: saline + alcohol) 10 of 10; (dose: 100.0 mg/kg/injection, schedule: Q04DX003 (ip), vehicle: water) 7 of 10.

As for `Nc1ccc2c(c1)CN1C(=O)c3ccccc3C1=N2`, under “dose: 12.5 mg/kg/injection, schedule: Q01DX009 (ip), vehicle: saline with Tween-80”, the T/C was 130 % of control [9 of 10 alive]. Also, the survivor count runs as follows: under setting [2], 5 of 10; under setting [3], 1 of 10.

Turning to `CCC1=C2C(=O)c3ccccc3C2=C(C)S(=O)(=O)O1`, the survivor count reads like this: under setting [1], 3 of 10; under setting [2], 0 of 10.

Regarding `C[CH2][Sn]([CH2]C)([CH2]C(=O)OC)[CH2]C(=O)OC`, the survivor count (dose: 25.0 mg/kg/injection, schedule: Q01DX009 (ip), vehicle: saline with Tween-80) is on record as 0 of 10; the survivor count under setting [1] was 0 of 10; the survivor count under setting [2] was 0 of 10; the survivor count under setting [3] was 0 of 10.

Turning to `CC1=CC(=Nc2ccc(N(CCCl)CCCl)cc2)C=C(C)C1=O`, the survivor count runs as follows: under setting [1], 10 of 10; under setting [2], 10 of 10; under setting [3], 6 of 10.

With `CC1(C)CC23C4COC(=O)C2CCC1C3CC4=O` (stereo unspecified), the survivor count (dose: 96.0 mg/kg/injection, schedule: Q01DX009 (ip), vehicle: DMSO) was 10 of 10 and the survivor count (dose: 192.0 mg/kg/injection, schedule: Q01DX009 (ip), vehicle: DMSO) was 1 of 10.

For `C/C=C1\C[C@@H]2C(OC)Nc3cc(O)c(OC)cc3C(=O)N2C1` (stereo partly specified), the survivor count was 10 of 10 (dose: 1.0 mg/kg/injection, schedule: Q01DX009 (ip), vehicle: saline) and 10 of 10 (dose: 1.0 mg/kg/injection, schedule: Q01DX009 (ip), vehicle: suspension in saline).

As for `C=C(C)C1C2CC3(C)C4(CO4)C4OC4C3(O)C1C(=O)O2` (stereo unspecified), the survivor count (dose: 4.0 mg/kg/injection, schedule: Q01DX008 (ip), vehicle: Klucel (hydroxypropylcellulose) (HPC)) was 8 of 10.

Take `COc1ccc(C(=O)C(CN(C)C)CN(C)C)cc1`: the survivor count under setting [4] is listed as 1 of 10.

For `CC(/C=C/c1ccccc1)=Nc1ccccc1`, under setting [5], the survivor count is listed as 8 of 10.

On to `CC(O)CCC(=O)c1ccoc1` (stereo unspecified), for which, for the setting “dose: 10.0 mg/kg/injection, schedule: Q03HX027 (ip), vehicle: saline”, the survivor count is 2 of 10.

For `[Cl][Co]([Cl])[Cl].[NH-]CC[N-]CC[NH-]`, where the note is “dose: 200.0 mg/kg/injection, schedule: Q01DX009 (ip), vehicle: saline”, the survivor count is reported as 6 of 10.

Turning to `O=S(=O)(N=N/C=C1\C=CC=CN1O)c1cccs1`, the survivor count by setting is: under setting [3], 5 of 10; under setting [5], 0 of 10.

Turning to `CO[C@@]12[C@@H]3N[C@@H]3CN1C1=C(C(=O)C(NCC3CCCO3)=C(C)C1=O)[C@@H]2COC(N)=O` (stereo partly specified), the survivor count by setting is: (dose: 12.0 mg/kg/injection, schedule: Q01DX009 (ip), vehicle: distilled water + Tween-80) 9 of 10; (dose: 24.0 mg/kg/injection, schedule: Q01DX009 (ip), vehicle: distilled water + Tween-80) 10 of 10.

Turning to `Cc1c2cc[n+](CCN3CCCCC3)cc2c(C)c2c1[nH]c1ccc(O)cc12`, the survivor count under setting [4] is reported as 9 of 10.

As for `CC(=O)CC(=O)CCC(=O)O`, the survivor count (dose: 400.0 mg/kg/injection, schedule: Q01DX009 (ip), vehicle: saline) is listed as 1 of 10.

For the compound `COc1cccc2c1C(=O)c1c(O)c3c(c(O)c1C2=O)C[C@@](O)(C(C)=O)C[C@@H]3OC1CC(N)C(O)C(C)O1` (stereo partly specified), where the note is “dose: 0.13 mg/kg/injection, schedule: Q01DX009 (ip), vehicle: saline”, the T/C was 132 % of control. For the same compound, the survivor count is on record as 9 of 9 (dose: 2.0 mg/kg/injection, schedule: Q01DX009 (ip), vehicle: saline); 10 of 10 (dose: 4.0 mg/kg/injection, schedule: Q01DX009 (ip), vehicle: saline); 8 of 10 (dose: 8.0 mg/kg/injection, schedule: Q01DX009 (ip), vehicle: saline).

As for `CCCCCNc1ncnc2c(C)[nH]nc12`, the survivor count is 4 of 10 (dose: 200.0 mg/kg/injection, schedule: Q01DX009 (ip), vehicle: Klucel (hydroxypropylcellulose) (HPC)) and 0 of 10 under setting [6].

Take `CCCCc1ccc2nc(NC(=O)OC)[nH]c2c1`: the survivor count under setting [3] was 2 of 10.

With `C=Cc1cnc([N+](=O)[O-])n1C`, the survivor count under setting [6] is 1 of 10.

Regarding `C[n+]1cccc(NC(=O)c2ccc(NC(=O)C34CCC(C(=O)Nc5ccc(C(=O)Nc6ccc[n+](C)c6)cc5)(CC3)CC4)cc2)c1`, the survivor count (dose: 20.0 mg/kg/injection, schedule: Q01DX009 (ip), vehicle: saline with Tween-80) is given as 8 of 10; the survivor count (dose: 40.0 mg/kg/injection, schedule: Q01DX009 (ip), vehicle: saline with Tween-80) is recorded as 8 of 10; the survivor count (dose: 80.0 mg/kg/injection, schedule: Q01DX009 (ip), vehicle: saline with Tween-80) is 0 of 10; the survivor count (dose: 160.0 mg/kg/injection, schedule: Q01DX009 (ip), vehicle: saline with Tween-80) is 0 of 10.

Consider `CC1CN1P1(N2CC2C)=NP(N2CC2C)(N2CC2C)=NP(N2CC2C)(N2CC2C)=N1` (stereo unspecified), for which, for the setting “dose: 100.0 mg/kg/injection, schedule: Q01DX009 (ip), vehicle: saline”, the survivor count was 9 of 10.

For the compound `NC(=O)/C=C/c1c[nH]c2nccnc12`, the survivor count (dose: 50.0 mg/kg/injection, schedule: Q01DX009 (ip), vehicle: water) was 1 of 10.

`CCN(CC)c1ccc2[nH]c3c(C(N)=O)cc(=O)c(=O)c=3oc2c1`: the survivor count under setting [3] is 5 of 10.

Consider `C#CCNC1=C(C)C(=O)C2=C(C1=O)[C@H](COC(N)=O)[C@]1(OC)[C@@H]3N[C@@H]3CN21`, for which the survivor count runs as follows: (dose: 12.5 mg/kg/injection, schedule: Q01DX009 (ip), vehicle: distilled water + Tween-80) 10 of 10; (dose: 25.0 mg/kg/injection, schedule: Q01DX009 (ip), vehicle: distilled water + Tween-80) 10 of 10; (dose: 50.0 mg/kg/injection, schedule: Q01DX009 (ip), vehicle: distilled water + Tween-80) 3 of 10; (dose: 100.0 mg/kg/injection, schedule: Q01DX009 (ip), vehicle: distilled water + Tween-80) 0 of 10.

As to `CN(Cc1cnc2nc(N)nc(N)c2n1)c1ccc(C(=O)N[C@@H](CCC(=O)O)C(=O)O)cc1`, the survivor count reads like this: (dose: 1.0 mg/kg/injection, schedule: Q01DX009 (ip), vehicle: sodium bicarbonate) 10 of 10; (dose: 8.0 mg/kg/injection, schedule: Q01DX009 (ip), vehicle: sodium bicarbonate) 9 of 10 and 10 of 10; (dose: 16.0 mg/kg/injection, schedule: Q01DX009 (ip), vehicle: sodium bicarbonate) 9 of 10 and 10 of 10.

(Values after PubChem BioAssay AID276 (DTP/NCI, 2004).)
